This assay addresses recombinant vault particles based on expression of the MVP protein alone (UniProt Q62667). In words: INT packaged into purified vaults used in the liposome assay.

Protein sequences, listed by entry. Tags and fused reporters are not part of them.
UniProt Q62667: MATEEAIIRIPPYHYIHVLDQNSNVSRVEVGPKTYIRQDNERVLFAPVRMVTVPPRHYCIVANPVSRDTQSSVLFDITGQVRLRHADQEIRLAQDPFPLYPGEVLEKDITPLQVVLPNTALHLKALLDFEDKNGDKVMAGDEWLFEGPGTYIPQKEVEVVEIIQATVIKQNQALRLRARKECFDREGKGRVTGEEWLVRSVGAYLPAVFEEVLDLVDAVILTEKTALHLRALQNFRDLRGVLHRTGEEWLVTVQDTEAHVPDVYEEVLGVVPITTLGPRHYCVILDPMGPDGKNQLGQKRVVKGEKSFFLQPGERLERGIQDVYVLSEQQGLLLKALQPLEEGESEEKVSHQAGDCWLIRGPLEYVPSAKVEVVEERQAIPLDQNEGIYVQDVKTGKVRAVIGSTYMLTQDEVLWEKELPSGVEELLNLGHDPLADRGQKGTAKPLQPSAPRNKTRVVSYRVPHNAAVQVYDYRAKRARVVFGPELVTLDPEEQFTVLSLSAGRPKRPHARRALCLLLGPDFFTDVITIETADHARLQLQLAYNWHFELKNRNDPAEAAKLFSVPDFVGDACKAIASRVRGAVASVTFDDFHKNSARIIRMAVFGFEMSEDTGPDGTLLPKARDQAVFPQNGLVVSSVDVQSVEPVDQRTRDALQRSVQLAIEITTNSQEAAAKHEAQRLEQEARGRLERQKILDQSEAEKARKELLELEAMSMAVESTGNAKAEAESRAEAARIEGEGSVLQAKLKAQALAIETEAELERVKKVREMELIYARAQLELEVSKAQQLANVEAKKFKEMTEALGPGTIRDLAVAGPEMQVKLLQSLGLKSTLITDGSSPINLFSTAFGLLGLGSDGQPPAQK

No constants are given. Whether binding was seen depends on the method and setting. Some entries that bind do so weakly or less than the wild type.

B1: INT domain of VPARP (amino acids 1563-1724), recombinant protein (protein, not shown: small tags and cut ends)
chain: CTQHWQDAVPWTELLSLQTEDGFWKLTPELGLILNLNTNGLHSFLKQKGIQSLGVKGRECLLDLIATMLVLQFIRTRLEKEGIVFKSLMKMDDPSISRNIPWAFEAIKQASEWVRRTEGQYPSICPRLELGNDWDSATKQLLGLQPISTVSPLHRVLHYSQG
Take B1: the binding entry is “binds”.

The values are drawn from patent publication US20160068576A1.
